Results: article PMC8465894
Results are given in words; binding and its absence hold for the method and conditions named. Some entries that bind do so weakly or less than the wild type. For some of these results: Sequences can lack the tags named with a protein.

Key:
[1] = molecular target: T1, hPIGK-StrepII-GST (human) (UniProt Q92643); assay: non-reducing SDS-PAGE with western blot; GPI-TA complex purified on StrepTactin Sepharose in DDM, DDM-CHS or digitonin; disulfide bond between PIGK and PIGT examined (Figure S7D)
T1 sequence: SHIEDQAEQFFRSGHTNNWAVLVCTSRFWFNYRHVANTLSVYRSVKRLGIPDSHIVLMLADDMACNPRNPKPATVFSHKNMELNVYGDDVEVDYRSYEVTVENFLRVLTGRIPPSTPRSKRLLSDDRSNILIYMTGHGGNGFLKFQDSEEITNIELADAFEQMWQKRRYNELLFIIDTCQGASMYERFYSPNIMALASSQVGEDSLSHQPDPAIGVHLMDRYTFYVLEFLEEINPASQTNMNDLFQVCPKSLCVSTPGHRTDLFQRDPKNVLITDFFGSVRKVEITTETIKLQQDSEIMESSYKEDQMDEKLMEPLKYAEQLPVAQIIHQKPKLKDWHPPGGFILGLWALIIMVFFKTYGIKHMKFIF

hPIGK-StrepII (human) [2] = molecular target: T2, hPIGK-StrepII (human) (UniProt Q92643); assay: non-reducing SDS-PAGE with silver staining and western blot; GPI-TA complex purified by PIGK-StrepII in GDN; samples with (+DTT) or without (-DTT) dithiothreitol; anti-StrepII detects PIGK-StrepII
T2 sequence: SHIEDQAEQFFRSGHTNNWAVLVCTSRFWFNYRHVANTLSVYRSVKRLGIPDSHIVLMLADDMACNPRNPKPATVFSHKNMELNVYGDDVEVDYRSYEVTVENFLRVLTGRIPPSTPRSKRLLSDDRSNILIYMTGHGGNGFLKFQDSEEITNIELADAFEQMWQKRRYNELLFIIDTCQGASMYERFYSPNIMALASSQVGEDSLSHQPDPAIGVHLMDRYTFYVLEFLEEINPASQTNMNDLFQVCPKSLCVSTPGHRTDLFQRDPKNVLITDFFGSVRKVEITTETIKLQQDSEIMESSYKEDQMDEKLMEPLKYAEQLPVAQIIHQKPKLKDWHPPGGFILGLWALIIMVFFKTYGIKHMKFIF

hPIGK-StrepII (human) [3] = molecular target: T2, hPIGK-StrepII (human); assay: non-reducing SDS-PAGE with western blot; samples of K562K cells stably expressing tagged PIGK, sample buffer with (+DTT) or without (-DTT) dithiothreitol; PIGK detected by anti-GST or anti-StrepII; shift to higher molecular weight without DTT
[4] = molecular target: T1, hPIGK-StrepII-GST (human); assay: as above

Measured: binding

B1: PIGT (protein, UniProt Q969N2 22-578)
chain: LAEPPRDSLREELVITPLPSGDVAATFQFRTRWDSELQREGVSHYRLFPKALGQLISKYSLRELHLSFTQGFWRTRYWGPPFLQAPSGAELWVWFQDTVTDVDKSWKELSNVLSGIFCASLNFIDSTNTVTPTASFKPLGLANDTDHYFLRYAVLPREVVCTENLTPWKKLLPCSSKAGLSVLLKADRLFHTSYHSQAVHIRPVCRNARCTSISWELRQTLSVVFDAFITGQGKKDWSLFRMFSRTLTEPCPLASESRVYVDITTYNQDNETLEVHPPPTTTYQDVILGTRKTYAIYDLLDTAMINNSRNLNIQLKWKRPPENEAPPVPFLHAQRYVSGYGLQKGELSTLLYNTHPYRAFPVLLLDTVPWYLRLYVHTLTITSKGKENKPSYIHYQPAQDRLQPHLLEMLIQLPANSVTKVSIQFERALLKWTEYTPDPNHGFYVSPSVLSALVPSMVAAKPVDWEESPLFNSLFPVSDGSNYFVRLYTEPLLVNLPTPDFSMPYNVICLTCTVVAVCYGSFYNLLTRTFHIEEPRTGGLAKRLANLIRRARGVPPL
binds: all assays above
